No constants are given. Whether binding was seen depends on the method and setting. In cells and extracts the contact can be indirect. Some binding calls cover weakened binding; strength is not graded here.
What was measured:
[1] = molecular target: endogenous Beclin1 (human (endogenous in A549 and HEp-2)) (UniProt Q14457); test: co-IP; HEp-2 cells expressing HA-NS2; endogenous Beclin1 IP with anti-Beclin1 antibody, immunoblot with anti-HA
[2] = molecular target: endogenous Beclin1 (human (endogenous in A549 and HEp-2)) (UniProt Q14457); test: co-IP; A549 cells expressing HA-NS2; endogenous Beclin1 IP with anti-Beclin1 antibody, immunoblot with anti-HA (also done in cells treated with IFN-β 500 U/mL, Fig. 7B)
[3] = molecular target: Flag-tagged Beclin1 (human) (UniProt Q14457); test: co-IP; HEK293 cells coexpressing Flag-Beclin1 and HA-NS2 or HA-NS1; IP with anti-Flag antibody on protein G agarose, immunoblot with anti-HA; lysis in PBS plus Triton X-100, overnight at 4°C
[4] = molecular target: HA-tagged RSV NS2 protein (human respiratory syncytial virus) (UniProt P04543); test: co-IP; A549 cells expressing HA-NS2; HA-NS2 IP with anti-HA antibody, immunoblot with anti-Beclin1
[5] = molecular target: HA-tagged RSV NS2 protein (human respiratory syncytial virus) (UniProt P04543); test: co-IP; HEp-2 cells expressing HA-NS2; HA-NS2 IP with anti-HA antibody, immunoblot with anti-Beclin1

Chains of the proteins cited; added tags and fusions are not shown.
UniProt Q14457: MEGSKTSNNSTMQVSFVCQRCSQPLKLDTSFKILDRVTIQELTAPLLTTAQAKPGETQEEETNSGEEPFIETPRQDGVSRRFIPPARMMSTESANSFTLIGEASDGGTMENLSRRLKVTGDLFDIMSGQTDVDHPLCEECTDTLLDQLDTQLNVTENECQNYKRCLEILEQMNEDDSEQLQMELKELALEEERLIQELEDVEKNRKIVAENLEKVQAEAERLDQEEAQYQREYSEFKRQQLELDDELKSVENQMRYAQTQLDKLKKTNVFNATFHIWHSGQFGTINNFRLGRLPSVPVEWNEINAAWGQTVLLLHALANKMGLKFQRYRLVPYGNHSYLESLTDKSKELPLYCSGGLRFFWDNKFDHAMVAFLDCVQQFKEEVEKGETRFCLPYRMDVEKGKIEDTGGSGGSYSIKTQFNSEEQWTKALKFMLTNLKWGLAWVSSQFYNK
UniProt P04543: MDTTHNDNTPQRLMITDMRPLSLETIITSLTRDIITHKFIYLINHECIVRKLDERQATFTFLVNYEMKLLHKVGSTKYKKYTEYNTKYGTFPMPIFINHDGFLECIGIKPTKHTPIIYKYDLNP

| Substance | binding [1] | binding [2] | binding [3] | binding [4] | binding [5] |
| --- | --- | --- | --- | --- | --- |
| HA-tagged RSV NS2 protein (from UniProt P04543 1-124) | binds | binds | binds | – | – |
| endogenous Beclin1 (from UniProt Q14457 1-450) | – | – | – | binds | binds |
